From article PMC7293329
These are yes or no findings as the source states them, for the method shown.

What was measured:
[1] = target: Uso1 N-terminal globular head region (Uso1^GHR), residues 1-726 (Saccharomyces cerevisiae) (UniProt P25386); experiment: crystal structure; two crystal forms (Uso1_open 2.7 A, Uso1_closed 2.94 A), space group P3(1)21, one molecule in the asymmetric unit; both purified
[2] = target: Uso1 N-terminal globular head region (Uso1^GHR), residues 1-726 (Saccharomyces cerevisiae) (UniProt P25386); experiment: SEC; analytical gel filtration, Superdex 200 10/300 GL, 20 mM Tris-HCl pH 8.0, 200 mM NaCl, 5 mM beta-mercaptoethanol, 0.5 mL/min; low concentration (1 mg/mL); both purified
[3] = target: Uso1 N-terminal globular head region (Uso1^GHR), residues 1-726 (Saccharomyces cerevisiae) (UniProt P25386); experiment: SEC; analytical gel filtration, Superdex 200 10/300 GL, 20 mM Tris-HCl pH 8.0, 200 mM NaCl, 5 mM beta-mercaptoethanol, 0.5 mL/min; high concentration (10 mg/mL); both purified
[4] = target: Uso1 N-terminal globular head region (Uso1^GHR), residues 1-726 (Saccharomyces cerevisiae) (UniProt P25386); experiment: SEC-MALS; Superdex 200 10/300 GL, 20 mM Tris-HCl pH 8.0, 200 mM NaCl, 5 mM beta-mercaptoethanol; 1 mg protein injected, 0.4 mL/min; both purified

binding [1]: no binding | binding [2]: no binding (tested: 1 mg/mL) | binding [3]: no binding (tested: 10 mg/mL) | binding [4]: no binding (tested: 1 mg injected)
B1: Uso1 N-terminal globular head region (Uso1^GHR), residues 1-726 (domain or fragment, UniProt P25386 1-726)
chain: MDIIQGLIQQPKIQSVDETIPTLCDRVENSTLISDRRSAVLGLKAFSRQYRESVIASGLKPLLNTLKRDYMDEDSVKAILETILILFIRGDGHDDLTRGWISQQSRLQNGKYPSPLVMKQEKEQVDQFSLWIADALTQSEDLIHLLVEFWEIDNFHIRLYTIQLLEAVMATRPLKARSALISLPTSISTMVSLLDDMHEPIRDEAILLLMAVVNDSPHVQKLVAFENIFERLFSIIEEEGGLRGSLVVNDCLSLINNILKYNTSNQTLFLETGNLPKLAHLLSEPISQDEVFFWNDQRIVNINTALDIVSLTVEPGNTVTTKHQNALLDSSVLMVVLRLAFFHNIPKKVRPVALLTAANMVRSNEHAQLEFSKIDVPYFDPSLPVNSTANGGPIKLIPVVSILINWMLYANSVHTFDTRVACSRLLKAYFMDNFDLQRDFLLKQVQLCNNSTNNVGDNAKENGGSNKSDKESDSDKDTDGKDGTEYEGSFKANLFEVLLNYDAELNLNPFKLFFTTDIFMFFFQQDHKYSEELREITRNVTTGNDLEDEEPLKAIQTISELLTTSLTAADIRIPISYLTFLIYWLFGDFKATNDFLSDKSVIKSLLSFSYQIQDEDVTIKCLVTMLLGVAYEFSSKESPFPRKEYFEFITKTLGKDNYASRIKQFKKDSYFSKVDMNEDSILTPELDETGLPKVYFSTYFIQLFNENIYRIRTALSHDPDEEPINK
